Experimental data taken from article PMC4970297.
These are yes or no findings as the source states them, for the method shown. Binding seen in cells or lysates may run through a third protein. Some entries that bind do so weakly or less than the wild type.

Protein sequences, listed by entry. Tags and fused reporters are not part of them. Lines headed by an entry give the natural chain unless they say otherwise; changes in a name come on top.
UniProt Q0VGT2: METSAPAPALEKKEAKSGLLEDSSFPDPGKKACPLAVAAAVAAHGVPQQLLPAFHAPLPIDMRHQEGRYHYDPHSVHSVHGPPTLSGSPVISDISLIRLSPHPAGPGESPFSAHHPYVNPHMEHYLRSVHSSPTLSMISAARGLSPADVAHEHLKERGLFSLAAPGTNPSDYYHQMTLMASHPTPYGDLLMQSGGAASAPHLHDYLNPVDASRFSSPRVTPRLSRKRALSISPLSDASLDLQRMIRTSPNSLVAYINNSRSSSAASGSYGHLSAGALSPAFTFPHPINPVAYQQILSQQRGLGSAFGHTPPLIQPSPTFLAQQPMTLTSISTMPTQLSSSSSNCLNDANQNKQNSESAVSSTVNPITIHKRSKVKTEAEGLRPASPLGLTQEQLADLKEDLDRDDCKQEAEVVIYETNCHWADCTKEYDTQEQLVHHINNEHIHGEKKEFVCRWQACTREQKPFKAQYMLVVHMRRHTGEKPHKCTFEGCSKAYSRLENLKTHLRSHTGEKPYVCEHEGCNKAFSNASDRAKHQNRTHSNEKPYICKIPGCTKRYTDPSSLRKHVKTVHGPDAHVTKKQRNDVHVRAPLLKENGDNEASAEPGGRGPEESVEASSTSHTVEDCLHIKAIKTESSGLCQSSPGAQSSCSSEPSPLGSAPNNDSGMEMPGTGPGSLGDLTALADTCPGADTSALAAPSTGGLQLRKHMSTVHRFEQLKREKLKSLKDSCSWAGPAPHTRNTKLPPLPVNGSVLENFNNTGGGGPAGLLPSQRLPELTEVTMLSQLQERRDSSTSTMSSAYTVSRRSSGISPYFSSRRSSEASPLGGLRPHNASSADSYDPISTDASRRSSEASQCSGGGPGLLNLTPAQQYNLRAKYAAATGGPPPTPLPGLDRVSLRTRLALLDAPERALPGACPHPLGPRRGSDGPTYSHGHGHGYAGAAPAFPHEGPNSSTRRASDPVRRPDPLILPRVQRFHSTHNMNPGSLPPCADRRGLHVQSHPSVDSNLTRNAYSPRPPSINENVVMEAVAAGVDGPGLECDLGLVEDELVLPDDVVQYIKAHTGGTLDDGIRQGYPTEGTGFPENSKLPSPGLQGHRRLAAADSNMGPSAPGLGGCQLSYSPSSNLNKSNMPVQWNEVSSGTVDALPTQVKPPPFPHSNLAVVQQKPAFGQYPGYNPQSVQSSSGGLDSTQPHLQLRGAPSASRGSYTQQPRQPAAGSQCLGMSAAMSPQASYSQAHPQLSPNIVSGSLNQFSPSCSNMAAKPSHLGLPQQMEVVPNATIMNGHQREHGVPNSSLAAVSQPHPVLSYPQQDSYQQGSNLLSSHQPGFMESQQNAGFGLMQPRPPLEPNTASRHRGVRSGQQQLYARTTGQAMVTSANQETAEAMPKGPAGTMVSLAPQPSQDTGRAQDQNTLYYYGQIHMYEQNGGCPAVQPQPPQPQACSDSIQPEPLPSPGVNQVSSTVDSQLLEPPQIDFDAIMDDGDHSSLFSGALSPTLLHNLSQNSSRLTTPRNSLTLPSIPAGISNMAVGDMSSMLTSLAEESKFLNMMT
UniProt Q3TKT4: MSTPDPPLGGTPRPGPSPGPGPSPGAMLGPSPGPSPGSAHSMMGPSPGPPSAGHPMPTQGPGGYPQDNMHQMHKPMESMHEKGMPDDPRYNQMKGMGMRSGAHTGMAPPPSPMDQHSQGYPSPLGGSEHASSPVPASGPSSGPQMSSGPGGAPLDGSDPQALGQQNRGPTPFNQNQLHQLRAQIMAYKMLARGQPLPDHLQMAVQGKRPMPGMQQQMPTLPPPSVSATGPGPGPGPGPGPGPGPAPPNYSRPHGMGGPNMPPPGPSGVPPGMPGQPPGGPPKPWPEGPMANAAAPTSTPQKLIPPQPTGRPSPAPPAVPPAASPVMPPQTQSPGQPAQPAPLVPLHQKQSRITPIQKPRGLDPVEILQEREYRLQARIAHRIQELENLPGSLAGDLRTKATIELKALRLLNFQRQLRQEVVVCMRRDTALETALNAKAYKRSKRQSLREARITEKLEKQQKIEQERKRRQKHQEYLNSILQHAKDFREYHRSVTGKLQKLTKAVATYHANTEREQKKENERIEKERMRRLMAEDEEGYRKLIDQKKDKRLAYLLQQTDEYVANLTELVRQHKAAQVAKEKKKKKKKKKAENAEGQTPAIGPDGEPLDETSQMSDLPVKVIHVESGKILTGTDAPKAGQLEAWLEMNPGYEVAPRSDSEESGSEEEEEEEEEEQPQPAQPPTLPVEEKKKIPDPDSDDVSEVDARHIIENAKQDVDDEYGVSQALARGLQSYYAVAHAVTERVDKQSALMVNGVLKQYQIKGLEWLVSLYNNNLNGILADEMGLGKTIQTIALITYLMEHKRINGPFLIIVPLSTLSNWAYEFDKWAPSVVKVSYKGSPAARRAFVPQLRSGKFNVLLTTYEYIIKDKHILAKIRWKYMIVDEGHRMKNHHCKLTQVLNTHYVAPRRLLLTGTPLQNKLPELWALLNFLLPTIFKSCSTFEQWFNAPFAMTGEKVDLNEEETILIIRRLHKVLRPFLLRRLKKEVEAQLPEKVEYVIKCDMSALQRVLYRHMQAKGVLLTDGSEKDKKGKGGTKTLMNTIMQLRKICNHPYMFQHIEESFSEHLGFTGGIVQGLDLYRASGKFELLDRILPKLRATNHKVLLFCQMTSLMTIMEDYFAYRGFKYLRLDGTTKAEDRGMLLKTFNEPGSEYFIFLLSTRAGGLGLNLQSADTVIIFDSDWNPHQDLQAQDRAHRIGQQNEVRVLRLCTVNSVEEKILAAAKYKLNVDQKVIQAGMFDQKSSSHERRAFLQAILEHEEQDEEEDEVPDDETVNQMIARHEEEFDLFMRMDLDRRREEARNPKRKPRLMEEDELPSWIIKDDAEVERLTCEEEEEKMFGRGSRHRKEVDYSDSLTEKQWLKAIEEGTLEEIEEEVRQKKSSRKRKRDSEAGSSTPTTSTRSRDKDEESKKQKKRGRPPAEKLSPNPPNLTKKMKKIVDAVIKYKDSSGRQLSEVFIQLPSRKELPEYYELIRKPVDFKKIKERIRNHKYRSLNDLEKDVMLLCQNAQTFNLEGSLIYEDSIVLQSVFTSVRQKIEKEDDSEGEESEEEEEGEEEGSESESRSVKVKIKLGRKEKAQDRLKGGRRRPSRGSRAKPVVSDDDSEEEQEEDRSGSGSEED

Target: FLAG-GLI2^S662A (mouse) (UniProt Q0VGT2)
Experiment: co-IP; FLAG beads (mouse IgG agarose beads as negative control) on pre-cleared extract of day 3 differentiating mES[GLI2] and mES[Ctrl] cells; 2 h IP; low salt wash (100 mM NaCl, 50 mM Tris pH7.5); western blot with anti-GLI2 and anti-BRG1 antibodies

binding: binds
Substance: Brahma-related gene 1 (BRG1/SMARCA4) (from UniProt Q3TKT4 1-1613)
